A short description of the data set: ROS generation upon sono-activation (SOSG fluorescence, EPR with TEMP or DMPO). To be noted: FUS activation 4 W, 15 min.

SMILES strings stand for the structures.

On to `CCCN1/C(=C/C=C2\CCCC(/C=C/C3=[N+](CCC)c4ccccc4C3(C)C)=C2Oc2ccc(CCC(=O)[O][Pt]3([NH2])([NH2])([OH])[O]C(=O)C4(CCC4)C(=O)[O]3)cc2)C(C)(C)c2ccccc21` [complex 1, cyaninplatin], for which the “hydroxyl radical generation (EPR with DMPO)” value is “no signal pulse was observed” and the “singlet oxygen generation (SOSG emission, EPR with TEMP)” value is listed as “release of singlet oxygen”.

The values are drawn from patent publication US12103941B2, “Radiation-activatable platinum complex, its preparation and therapeutic use” (City University of Hong Kong, priority 2022, dated 2024).
